At least one compound was matched to its structure with a doubt left.
Assay: Contact angle measurement on a solid surface by sessile drop technique (wetting properties)
Assay type: physicochemical
Conditions: Table 4, itraconazole series
Description: The contact angles of voriconazole alone, glucose, voriconazole micelle formulation and voriconazole liposome formulation on a solid surface were measured by sessile drop technique using Lorentzen and […], type 28 optical tensiometer. The purpose of measuring the contact angle is to determine the wetting properties of the formulation. Higher contact angles correspond to poor wetting whereas lower contact angle correspond to good wetting properties. Micelles and liposomes of itraconazole have been prepared according to the method described in example 1. The contact angles of itraconazole alone, glucose, itraconazole micelle formulation and itraconazole liposome formulation on a solid surface were measured by sessile drop technique using Lorentzen and […], type 28 optical tensiometer.

CCC(C)n1ncn(-c2ccc(N3CCN(c4ccc(OCC5COC(Cn6cncn6)(c6ccc(Cl)cc6Cl)O5)cc4)CC3)cc2)c1=O (stereo not shown) [Itraconazole]
Contact angle: 73.3 °

Source: patent EP4005557A1, “METHOD FOR PREPARING NANOSYSTEMS” (Université de Genève, priority 2020, dated 2022)
